Results are given in words; binding and its absence hold for the method and conditions named. Binding seen in cells or lysates may run through a third protein. Some binding calls cover weakened binding; strength is not graded here.

By UniProt entry, the sequences of proteins in these tests, tags left out.
UniProt Q06A28: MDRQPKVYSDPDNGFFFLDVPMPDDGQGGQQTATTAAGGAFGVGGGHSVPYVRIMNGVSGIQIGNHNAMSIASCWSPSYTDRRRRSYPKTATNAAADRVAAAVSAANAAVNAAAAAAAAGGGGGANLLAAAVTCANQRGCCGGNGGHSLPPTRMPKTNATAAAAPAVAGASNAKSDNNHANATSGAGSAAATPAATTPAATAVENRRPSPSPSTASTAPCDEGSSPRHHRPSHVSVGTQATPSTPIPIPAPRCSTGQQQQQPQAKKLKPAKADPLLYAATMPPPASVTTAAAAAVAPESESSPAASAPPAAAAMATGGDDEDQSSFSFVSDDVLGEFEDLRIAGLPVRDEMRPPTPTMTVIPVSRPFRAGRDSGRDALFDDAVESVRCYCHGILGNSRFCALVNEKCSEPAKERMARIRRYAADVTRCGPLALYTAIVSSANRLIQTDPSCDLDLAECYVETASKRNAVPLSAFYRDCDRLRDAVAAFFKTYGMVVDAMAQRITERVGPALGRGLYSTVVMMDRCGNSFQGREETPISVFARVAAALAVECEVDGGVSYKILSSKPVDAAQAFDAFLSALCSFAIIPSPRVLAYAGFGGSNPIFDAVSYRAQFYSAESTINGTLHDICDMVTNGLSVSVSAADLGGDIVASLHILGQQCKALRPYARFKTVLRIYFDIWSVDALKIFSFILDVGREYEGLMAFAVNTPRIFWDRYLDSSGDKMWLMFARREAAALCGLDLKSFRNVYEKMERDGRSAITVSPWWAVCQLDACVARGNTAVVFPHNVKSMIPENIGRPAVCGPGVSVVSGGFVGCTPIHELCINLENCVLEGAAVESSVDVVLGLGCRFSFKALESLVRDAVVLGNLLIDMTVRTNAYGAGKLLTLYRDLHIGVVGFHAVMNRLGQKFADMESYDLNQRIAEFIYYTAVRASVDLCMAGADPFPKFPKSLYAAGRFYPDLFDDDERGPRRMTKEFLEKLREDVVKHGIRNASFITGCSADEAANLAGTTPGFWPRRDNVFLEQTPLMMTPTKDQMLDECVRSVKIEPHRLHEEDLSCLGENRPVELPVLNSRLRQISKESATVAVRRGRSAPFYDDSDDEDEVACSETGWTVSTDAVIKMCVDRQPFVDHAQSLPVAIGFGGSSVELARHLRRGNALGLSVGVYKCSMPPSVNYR
UniProt Q9Y6K9: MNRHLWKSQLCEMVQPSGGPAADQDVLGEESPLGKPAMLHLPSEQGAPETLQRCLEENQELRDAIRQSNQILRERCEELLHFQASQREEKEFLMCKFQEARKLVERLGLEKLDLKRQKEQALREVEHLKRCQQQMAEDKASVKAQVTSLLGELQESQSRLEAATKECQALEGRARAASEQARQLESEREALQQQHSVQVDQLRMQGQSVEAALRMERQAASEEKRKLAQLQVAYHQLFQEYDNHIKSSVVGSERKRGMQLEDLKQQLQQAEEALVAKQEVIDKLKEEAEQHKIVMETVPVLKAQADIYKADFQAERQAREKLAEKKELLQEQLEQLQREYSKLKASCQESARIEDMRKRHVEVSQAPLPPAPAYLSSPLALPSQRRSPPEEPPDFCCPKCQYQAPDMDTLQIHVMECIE
UniProt O88522: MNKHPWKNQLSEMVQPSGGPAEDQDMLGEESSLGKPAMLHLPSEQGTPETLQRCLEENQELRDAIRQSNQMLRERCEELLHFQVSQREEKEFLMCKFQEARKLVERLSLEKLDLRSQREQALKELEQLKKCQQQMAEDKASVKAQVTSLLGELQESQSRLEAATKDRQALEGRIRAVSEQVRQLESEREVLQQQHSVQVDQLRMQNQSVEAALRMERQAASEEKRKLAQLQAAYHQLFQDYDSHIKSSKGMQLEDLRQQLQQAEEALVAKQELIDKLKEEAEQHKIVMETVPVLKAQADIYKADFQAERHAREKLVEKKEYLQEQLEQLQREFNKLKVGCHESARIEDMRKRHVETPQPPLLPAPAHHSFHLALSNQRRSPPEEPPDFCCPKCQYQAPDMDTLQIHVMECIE

The target of assay [1] is HA-tagged M45 (murine cytomegalovirus M45 protein, full length, from pcDNA-M45-HA) (murine cytomegalovirus) (UniProt Q06A28). The experiment in a line: co-IP; rip1-/- MEFs transfected with HA-tagged M45 and Flag-tagged NEMO; IP anti-HA.
Assay [2] has the same target. As to the kind of experiment: co-IP; 293A cells co-transfected with HA-tagged M45 (full length or truncated) and Flag-tagged IKK subunits; IP anti-HA, immunoblot anti-Flag; lysis in 50 mM Tris-HCl pH 7.5, 150 mM NaCl, 1% Nonidet P-40. (Immunoblotting shows a protein as a band on a membrane.)
For assay [3] the target is unchanged. As to the kind of experiment: co-IP; 293A cells transfected with HA-tagged M45 or m143; IP anti-HA, immunoblot for endogenous NEMO, IKKα and IKKβ.
The target of assay [4] is HA-tagged M45 expressed by the MCMV revertant virus RM45 (murine cytomegalovirus) (UniProt Q06A28). As to the kind of experiment: co-IP; NIH-3T3 cells infected for 4 hours with RM45 (MCMV expressing HA-tagged M45) at an MOI of 5; IP of lysates and immunoblot for the IKK subunits.

Take “Flag-tagged NEMO (from pCMVTAG-NEMO) (from UniProt Q9Y6K9 1-419)”: the binding result in assay [1] and in assay [2] was “binds” in each case. As to “endogenous NEMO of 293A cells (from UniProt Q9Y6K9 1-419)”, the binding result in assay [3] is “binds”. As to “endogenous NEMO of NIH-3T3 cells (from UniProt O88522 1-412)”, in assay [4], the binding result is “binds”.

Source of the values: publication PMC3271075.
